Binding data for one substance are collected here from PMC7724824.

By UniProt entry, the sequences of proteins in these tests, tags left out.
UniProt P31749: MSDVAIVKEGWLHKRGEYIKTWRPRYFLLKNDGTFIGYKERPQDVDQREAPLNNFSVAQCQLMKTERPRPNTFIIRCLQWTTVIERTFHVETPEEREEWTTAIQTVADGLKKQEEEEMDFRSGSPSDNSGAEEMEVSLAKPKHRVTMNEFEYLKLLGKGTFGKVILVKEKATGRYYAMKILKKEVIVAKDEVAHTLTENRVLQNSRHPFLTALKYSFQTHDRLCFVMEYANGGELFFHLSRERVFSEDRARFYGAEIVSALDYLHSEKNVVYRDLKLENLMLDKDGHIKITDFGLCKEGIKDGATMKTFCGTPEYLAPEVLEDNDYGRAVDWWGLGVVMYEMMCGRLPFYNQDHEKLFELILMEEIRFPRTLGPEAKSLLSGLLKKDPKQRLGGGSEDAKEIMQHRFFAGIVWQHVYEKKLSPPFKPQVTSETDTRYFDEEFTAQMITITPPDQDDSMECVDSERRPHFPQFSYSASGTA

No constants are given. Whether binding was seen depends on the method and setting. In cells and extracts the contact can be indirect. Some results given as binding are weak or reduced against the parent protein; the word gives no strength.

The assay deals with Flag-AKT (wild type) (UniProt P31749). In words: co-IP; HEK293 cells (results and legend: HEK293T / 293 T) transfected with Flag-AKT (wild type) alone or plus HA-HDAC3 for 48 h; lysates immunoprecipitated with Flag, immunoblotted for acetylated-lysine, HA, p-AKT and Flag.

Regarding “HA-HDAC3 (histone deacetylase 3) (from UniProt O15379-1 1-428) (enzyme)”, the binding entry is “binds”.
